## Primary screen of a compound library

Amino acid sequences for entries named in this document (tags omitted). Residues count along the entry.
UniProt Q4DA54, 1-478: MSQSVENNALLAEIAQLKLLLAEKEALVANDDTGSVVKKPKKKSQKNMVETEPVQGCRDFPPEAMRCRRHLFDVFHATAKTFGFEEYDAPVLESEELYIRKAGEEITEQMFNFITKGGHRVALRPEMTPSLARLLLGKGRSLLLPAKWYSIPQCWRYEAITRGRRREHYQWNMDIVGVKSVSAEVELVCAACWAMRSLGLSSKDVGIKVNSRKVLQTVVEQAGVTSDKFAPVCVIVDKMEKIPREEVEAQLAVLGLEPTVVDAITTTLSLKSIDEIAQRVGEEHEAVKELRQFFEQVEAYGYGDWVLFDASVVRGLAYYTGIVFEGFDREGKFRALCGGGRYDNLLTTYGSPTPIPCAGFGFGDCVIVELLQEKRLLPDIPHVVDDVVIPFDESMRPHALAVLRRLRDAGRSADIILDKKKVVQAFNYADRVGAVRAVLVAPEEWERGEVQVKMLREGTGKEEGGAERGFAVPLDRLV
UniProt A4I591, 1-473: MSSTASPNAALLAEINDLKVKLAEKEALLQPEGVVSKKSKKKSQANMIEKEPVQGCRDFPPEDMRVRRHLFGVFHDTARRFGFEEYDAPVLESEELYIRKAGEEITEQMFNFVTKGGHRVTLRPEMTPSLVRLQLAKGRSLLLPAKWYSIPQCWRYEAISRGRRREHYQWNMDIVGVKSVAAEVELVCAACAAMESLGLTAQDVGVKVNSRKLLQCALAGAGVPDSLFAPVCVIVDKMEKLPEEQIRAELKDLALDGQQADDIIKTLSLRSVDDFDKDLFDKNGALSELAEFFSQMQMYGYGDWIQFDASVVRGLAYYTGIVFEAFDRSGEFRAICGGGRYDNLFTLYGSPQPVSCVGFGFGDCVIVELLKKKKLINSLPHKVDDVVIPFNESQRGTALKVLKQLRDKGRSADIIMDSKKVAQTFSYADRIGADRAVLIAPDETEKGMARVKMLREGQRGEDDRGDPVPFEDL
UniProt Q8IDJ8, 1-583: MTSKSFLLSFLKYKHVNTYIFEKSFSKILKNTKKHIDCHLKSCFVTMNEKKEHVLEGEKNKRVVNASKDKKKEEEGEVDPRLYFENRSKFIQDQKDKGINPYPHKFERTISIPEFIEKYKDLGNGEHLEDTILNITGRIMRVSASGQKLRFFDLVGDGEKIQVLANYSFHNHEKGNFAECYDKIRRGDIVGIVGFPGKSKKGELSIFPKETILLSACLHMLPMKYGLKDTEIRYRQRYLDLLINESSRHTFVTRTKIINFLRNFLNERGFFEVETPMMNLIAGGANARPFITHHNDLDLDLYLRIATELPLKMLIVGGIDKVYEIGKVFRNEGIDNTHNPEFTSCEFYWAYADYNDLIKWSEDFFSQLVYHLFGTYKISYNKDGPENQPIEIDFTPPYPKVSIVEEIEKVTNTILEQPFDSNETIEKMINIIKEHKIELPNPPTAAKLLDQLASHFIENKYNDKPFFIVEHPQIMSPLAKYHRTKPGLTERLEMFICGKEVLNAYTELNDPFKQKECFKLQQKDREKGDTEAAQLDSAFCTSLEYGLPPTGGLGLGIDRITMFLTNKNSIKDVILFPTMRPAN

The filed quantity is “Percent Effect” (%). The record does not define 0% and 100%; most values in the screen are far below 50% and negative numbers occur (in some assays of this library far below -100). Compounds were drawn at random from those tested, without regard to their results.

TcHisRS: 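Enzyme assay of histidyl-tRNA synthetase; the read-out is not stated. Target: Histidine-tRNA ligase, Trypanosoma cruzi CL Brener (UniProt Q4DA54). Tested at 30 µM. Direction is inferred from retests: higher values go with stronger inhibition. About 69,000 compounds were tested under these conditions; 0.045% (about 31) showed 50% or more at least once.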
LiHisRS: 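Enzyme assay of histidyl-tRNA synthetase; the read-out is not stated. Target: Histidine-tRNA ligase, Leishmania infantum (UniProt A4I591). Compounds at 30 µM. Higher reads as stronger inhibition (inferred: compounds with an IC50 in retests scored well above the rest). The assay is labelled LdHisRS but filed under L. infantum. Of about 69,000 compounds tested this way, about 410 (0.6%) reached 50% or more in at least one test.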
PfKRS1: 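Enzyme assay of the cytosolic lysyl-tRNA synthetase in 384-well plates, read by luminescence. Target: Lysine-tRNA ligase, Plasmodium falciparum 3D7 (UniProt Q8IDJ8). Tested at 30 µM. Higher reads as stronger inhibition, judged from the few compounds that gave an IC50. Size under these conditions: about 69,000 compounds, about 49 of them at 50% or above in at least one test.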

| # | SMILES | TcHisRS | LiHisRS | PfKRS1 |
|---|---|---|---|---|
| 1 | `OCc1csc(N2CCN(Cc3cccc(F)c3)CC2)n1` | 15.29 | 23.02 | 0.1584 |
| 2 | `CC[C@@H]1N(CC2CC2)CCC[C@]12CCC(=O)N2` | 3.797 | 5.172 | 4.558 |
| 3 | `c1ccc2c(c1)ccn2CCCNC1CCOC2(CCOCC2)C1` (centres undefined) | 5.603 | -6.329 | 3.26 |
| 4 | `COc1ccc(OC)c(CN(C)c2nc3c(cnn3C)c(=O)[nH]2)c1` | 3.448 | 6.14 | 4.63 |
| 5 | `CN(Cc1ccccn1)c1nccc(N2CCN[C@H]3CS(=O)(=O)C[C@H]32)n1` | 4.545 | 11.29 | 0.9242 |
| 6 | `CN(C)C(=O)C1CN(Cc2cccs2)CCN(S(C)(=O)=O)C1` (centres undefined) | 1.064 | 15.62 | 4.374 |
| 7 | `CCN(CC1CCOC1)C(=O)c1ccccc1N1CCOCC1` (centres undefined) | 1.515 | -1.515 | 2.083 |
| 8 | `CN1C(=O)CCCC12CCCN(C(=O)c1ccoc1)C2` (centres undefined) | -12.02 | 4.587 | 2.395 |
| 9 | `CC(CO)NC(=O)c1ccc(NCc2ccc(F)c(F)c2)cc1` (centres undefined) | -0.431 | 24.05 | 7.028 |
| 10 | `Cc1nn(C)c(N(C)C)c1CNCC(O)c1ccccc1` (centres undefined) | 4.132 | 19.23 | 3.419 |
| 11 | `c1ccc(CN2CCO[C@H]3[C@H](OCCN4CCCC4)CC[C@@H]32)nc1` | 2.703 | 9.434 | 0.7594 |
| 12 | `Nc1ccc(-c2cc(O)cc(CCC3CCCCN3)c2)cn1` (centres undefined) | 1.571 | 5.376 | 2.461 |
| 13 | `Cc1nn(C)c(N(C)C)c1CNCC(O)COc1ccccc1` (centres undefined) | 2.479 | 25 | 0.3593 |
| 14 | `Cn1cccc1C(=O)NCc1cnc2n1CCN(CC1CC1)C2` | 0.9804 | 17.14 | 6.937 |
| 15 | `CC(=O)N1CCC(C(=O)N2CCC(=Cc3cccc(F)c3)CC2)CC1` | 1.205 | 12 | -4.121 |
| 16 | `O=C(NCCCSc1ccc(F)cc1)C1CCc2cn[nH]c2C1` (centres undefined) | 10 | 17.12 | 4.991 |
| 17 | `CCCc1cc(C(=O)N2CCCC(n3ccnc3C)C2)[nH]n1` (centres undefined) | 4.511 | -14.61 | 9.114 |
| 18 | `CCSc1ccc(C(=O)N2CCCCC2C(=O)N2CCCC2)cn1` (centres undefined) | 10 | 8.696 | -1.951 |
| 19 | `c1csc(CN2CCc3nnc(COc4cncnc4)n3CC2)c1` | 10.74 | 9.091 | 2.577 |
| 20 | `COc1c2ccc(C(=O)NCCCn3ncccc3=O)cc2nn1C` | -1.031 | 17.39 | -1.075 |
| 21 | `CN1CCC(Cc2noc(-c3cccc(Oc4ncccn4)c3)n2)CC1` | 2.717 | 18.67 | 2.839 |

2 of the entries, repeated:

{"smiles": "CCN(CC1CCOC1)C(=O)c1ccccc1N1CCOCC1", "stereo": "centres undefined", "TcHisRS": 1.515, "LiHisRS": -1.515, "PfKRS1": 2.083}
{"smiles": "CCCc1cc(C(=O)N2CCCC(n3ccnc3C)C2)[nH]n1", "stereo": "centres undefined", "TcHisRS": 4.511, "LiHisRS": -14.61, "PfKRS1": 9.114}

Data taken from ChEMBL document CHEMBL3988442, “University of Dundee, Small-Polar-MMV Screening Library” (2021).